The text below walks through data of PubChem BioAssay AID2685 (National Center for Advancing Translational Sciences (NCATS), 2010).

Each structure is given as a SMILES string. Some of the results follow. Shown are side measurements of this screen, not its main read-out; they come without a call. Most of these compounds were active or inconclusive in the main read-out, so they are no random draw. Words in brackets tell the shape of the fitted curve; partial curves, single points and poor fits give uncertain potencies.

This assay is described as follows: qHTS Assay for Lipid Storage Modulators in Drosophila S3 Cells.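 On cell number change: cells counted by Cell Tracker Red CMTPX staining in the red channel.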 Conditions: BODIPY lipid droplet fluorescence, 18-24 h; for cell number change: measured here: cell count max response, cells fed with added oleic acid. The essentials: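 Drosophila S3 cells loaded with oleic acid (400 uM, as added) and compounds at several concentrations; lipid droplets imaged by 488-nm laser-scanning cytometry, 500–530 nm intensity and object ratio to cell channel. Percent activity normalized to 20 uM Triacsin C.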
For orientation: qHTS replaces the single test concentration by a dilution series.

Setting [1] is: measured here: cell number channel AC50, cells fed with added oleic acid.
[2] abbreviates: measured here: lipid fluorescence (Fed channel) AC50, cells fed with added oleic acid.

Consider `CC1=NC(C)(C)Cc2c(C)cccc21`, for which the cell number change was -28.7%.

Take `COc1ccc(CCNc2c([N+](=O)[O-])ncn2C)cc1OC`: the cell number change is 11.2%.

The term AC50 denotes the concentration at which the activity in the assay is half-maximal. Low readings indicate greater potency, high ones weaker potency. Regarding `CC(=O)c1cccc(NC(=O)NC2CCCCC2)c1`, the cell number change was -30.7%. Moreover, the AC50 under setting [1] was 29.1 µM [falling, single point].

Consider `CCN(CC)S(=O)(=O)c1ccc(C(=O)N(c2ccccc2)C2C=CS(=O)(=O)C2)cc1` (stereo not drawn), for which the cell number change is -20.7%. The half-maximal activity concentration (AC50) under setting [2] is 0.0231 µM [rising, full curve, poor fit].

With `CC(=O)c1cccc(NC(=O)CCCSc2ccccc2)c1`, the cell number change was -9.52%. Under setting [2], the AC50 was 3.26 µM [falling, partial curve].

As to `Cc1n[nH]c(C)c1CCC(=O)N/N=C/c1c[nH]c2ccccc12`, the cell number change stood at 6.79%. Also, the AC50 under setting [2] is 0.13 µM [falling, full curve, poor fit].

`Cn1c(=O)c2c(nc(Oc3ccccn3)n2C)n(C)c1=O`: the cell number change is -1.48%.

Take `CC(C(=O)N1CCN(C2c3ccccc3-c3ccccc32)CC1)N1C(=O)c2ccccc2C1=O` (stereo not drawn): the cell number change was -19%. In addition, under setting [2], the AC50 is 5.17 µM [falling, partial curve].

Take `Cc1ccc(-c2nnc(N3CCOCC3)c3ccccc23)cc1S(=O)(=O)NCC1CCCO1` (stereo not drawn): the cell number change came to 0.768%. Moreover, the AC50 under setting [2] was 0.92 µM [rising, full curve].

With `CC(=O)c1cccc(N(C(=O)Cn2nnc3ccccc32)C(C(=O)NCc2ccccc2)c2ccccn2)c1` (stereo not drawn), the AC50 was 6.51 µM [rising, single point] under setting [1] and 2.59 µM [rising, single point] under setting [2].

Take `COC(=O)c1ccc(Oc2ccc(C(F)(F)F)cn2)cc1`: the cell number change was -12.9%. For the same compound, the concentration at half-maximal activity (AC50) under setting [1] is 0.092 µM [falling, full curve]. In addition, the AC50 under setting [2] was 0.103 µM [falling, full curve, poor fit].

With `Cc1ccccc1N(C(=O)c1snc(C(N)=O)c1N)C(C(=O)NC1CCCC1)c1ccco1` (stereo not drawn), the cell number change was -5.65%.

As to `CC(=O)C1=C(C)Nc2ncnn2C1c1cccc(OCc2ccccc2)c1` (stereo not drawn), the cell number change is 3.02%. For the same compound, the AC50 under setting [1] was 0.92 µM [rising, full curve, poor fit].

On to `O=C(N/N=C/c1ccc(Cl)cc1Cl)Nc1ccccc1`, for which the cell number change is -42.4%. For the same compound, the AC50 under setting [1] is 29.1 µM [falling, single point].

Consider `Cc1ccc(C)c2[nH]c(=O)c(CCNC(=O)c3ccc(S(=O)(=O)N4CCCC4)cc3)cc12`, for which the AC50 under setting [2] is 7.31 µM [falling, partial curve].

`Cc1ccc(NC(=O)C2CCCN2C(=O)c2cccs2)c(C)c1` (stereo not drawn): the cell number change is -15.2%.

Take `Cc1cc(C)nc(NC(=O)Nc2ccccc2C(F)(F)F)n1`: the cell number change was -3.09%. Moreover, the AC50 under setting [2] was 13 µM [falling, partial curve].

`C/C(=N\Nc1cc(C)nc(-c2ccccc2O)n1)c1ccccc1O`: the cell number change was determined as 19.1%. Further, under setting [2], the AC50 is 2.06 µM [rising, partial curve, poor fit].

For the compound `CC1Cn2c(nnc2-c2cccc(Cl)c2)S1` (stereo not drawn), the cell number change stood at 12.3%. The AC50 under setting [2] is 0.0651 µM [rising, full curve, poor fit].

Consider `Cc1cc(NC(=O)c2nn(C)c(C)c2Br)no1`, for which the cell number change was -44%. For the same compound, under setting [1], the half-maximal activity concentration (AC50) was 29.1 µM [falling, single point]. For the same compound, the AC50 under setting [2] is 16.4 µM [rising, partial curve, poor fit].

Turning to `OC(CNC1CCCCCC1)COc1cccc2ccccc12` (stereo not drawn), the cell number change is -15.3%. Under setting [2], the AC50 was 29.1 µM [falling, single point].

Regarding `O=C(COc1ccccc1)N1CCN(C(=O)c2cccs2)CC1`, the cell number change is -37%. Besides, the AC50 under setting [1] was 0.517 µM [falling, full curve].

Regarding `CN(C)CC(CCC(CN(C)C)C(=O)c1ccccc1)C(=O)c1ccccc1` (stereo not drawn), the cell number change was -65.5%. Moreover, under setting [1], the AC50 is 23.1 µM [falling, single point]. The AC50 under setting [2] is 16.4 µM [falling, single point].

Regarding `O=c1cc(CSc2nnc(-c3cccs3)n2Cc2ccccc2)nc2sc3ccccc3n12`, the cell number change is -34.8%. For the same compound, under setting [1], the AC50 is 1.84 µM [falling, full curve]. Also, the AC50 under setting [2] was 6.51 µM [falling, partial curve].

With `CCOc1ccc(NS(=O)(=O)c2ccc(NC(=O)c3ccccn3)cc2)cc1`, the cell number change came to 2.29%. Further, the concentration at half-maximal activity (AC50) under setting [2] was 29.1 µM [rising, single point].

Consider `COc1ccc(-n2c(C)cc(C(=O)Cn3c(NCCO)nc4ccccc43)c2C)cc1`, for which the cell number change is -0.256%.

With `Cc1nn(-c2ccccc2)c2[nH]c(=O)cc(C(F)(F)F)c12`, the cell number change is -36.2%. In addition, the AC50 under setting [1] was 0.366 µM [falling, full curve].

Consider `COc1ccc(-n2c(SCC(=O)Nc3nccs3)nc3c(c2=O)SCC3)cc1`, for which the AC50 under setting [2] was 6.51 µM [rising, single point].

As to `COc1ccc(-c2cc(C)no2)cc1S(=O)(=O)NCCCN1CCN(c2ccccc2)CC1`, the cell number change worked out at 5.13%. Further, the AC50 under setting [2] is 6.51 µM [rising, single point].

Turning to `Nc1nonc1-c1noc(CCCOc2ccc(Cl)cc2Cl)n1`, the cell number change is -14.6%.

For the compound `COc1ccc(-c2nnc(-c3cccnc3)o2)cc1`, the cell number change worked out at 38.1%. For the same compound, the AC50 under setting [1] is 18.4 µM [rising, single point].

In the case of `O=C(COc1ccc2ccccc2c1)Nc1nc2ccccc2[nH]1`, the cell number change was -16.4%. In addition, under setting [2], the concentration at half-maximal activity (AC50) is 29.1 µM [rising, single point].

Turning to `c1ccc(Cn2c(-c3cncs3)nc3ccccc32)cc1`, the half-maximal activity concentration (AC50) under setting [1] was 0.291 µM [rising, full curve].

As to `COc1ccc(CNC(=O)c2csc3c2CCCC3)cc1`, the cell number change was 13.3%.

For the compound `O=C(COc1cccc(Cl)c1Cl)Nc1ccc2c(c1)CCC2`, the cell number change was -43.9%. In addition, under setting [1], the half-maximal activity concentration (AC50) was 20.6 µM [falling, partial curve, poor fit]. Also, the AC50 under setting [2] was 20.6 µM [falling, partial curve, poor fit].

On to `Cc1ccc2nc(/C=C/c3cccc(F)c3)ccc2c1`, for which the cell number change was determined as 0.833%. For the same compound, under setting [2], the half-maximal activity concentration (AC50) was 0.82 µM [rising, full curve].

For `O=C(CSc1nnc(C2CC2)n1Cc1ccccc1)Nc1cccnc1Cl`, the half-maximal activity concentration (AC50) under setting [2] is 6.51 µM [rising, partial curve].

`O=C(CN1CCCC(O)C1)N1c2ccccc2Sc2ccc(C(F)(F)F)cc21` (stereo not drawn): the cell number change was -30.8%. Further, the AC50 under setting [1] was 11.6 µM [falling, single point].

`O=C(CN1C(=O)C2CCc3[nH]c4ccccc4c3C2C1=O)N1CCCC1` (stereo not drawn): the cell number change stood at 3.24%. Further, the AC50 under setting [1] was 0.00461 µM [falling, full curve, poor fit]. Further, the AC50 under setting [2] was 4.11 µM [rising, single point].

On to `COc1ccc(NCC(=O)N/N=C/C(C)c2ccccc2)cc1` (stereo not drawn), for which the concentration at half-maximal activity (AC50) under setting [2] was 6.51 µM [rising, single point].
